Assay [1] addresses GST-NRC (GST fusion of full length NRC expressed from pEBG-NRC in 293T cells) (UniProt Q14686). Put plainly: co-expression in 293T cells, glutathione-agarose pull-down, anti-Flag M2 Western blot.
Assay [2] has the same target. Description: co-expression in 293T cells, glutathione-agarose pull-down, anti-Flag M2 Western blot (FIG. 4). For orientation: In western blotting, separated proteins are transferred to a membrane and probed.
In assay [3] the target is LexA-NRC.1 wt (rat NRC.1, wild-type LxxLL-1 motif) (rat) (UniProt P0A7C2+Q9JLI4). Description: yeast two-hybrid, LexA-NRC constructs with wild-type or mutated LxxLL-1.
For assay [4], the target named is LexA-NRC.1a wt (rat NRC.1a, amino acids 849-995, wild-type LxxLL-1 motif LVNLL) (rat) (UniProt P0A7C2+Q9JLI4). The assay is described as above.
Assay [5] concerns the target LexA-NRC (LexA fusion of NRC; limits of the construct not given) (UniProt P0A7C2). Description: yeast two-hybrid, B42-NIF-1 (full-length) against LexA-NRC, β-galactosidase.
Assay [6] has the same target. Description: yeast two-hybrid, B42-NIF constructs against LexA-NRC fusions (FIG. 5).
Assay [7] shares this target. Put plainly: yeast two-hybrid.
The target in assay [8] is LexA-NRC-b (LexA DBD fused to NRC amino acids 849-2063), bait of the two-hybrid screen (UniProt P0A7C2). Description: yeast two-hybrid screen, LexA-NRC(849-2063) bait against the B42 GH4C1 cDNA library.

Chains of the proteins cited; added tags and fusions are not shown. Lines headed by an entry give the natural chain unless they say otherwise; changes in a name come on top.
UniProt Q14686: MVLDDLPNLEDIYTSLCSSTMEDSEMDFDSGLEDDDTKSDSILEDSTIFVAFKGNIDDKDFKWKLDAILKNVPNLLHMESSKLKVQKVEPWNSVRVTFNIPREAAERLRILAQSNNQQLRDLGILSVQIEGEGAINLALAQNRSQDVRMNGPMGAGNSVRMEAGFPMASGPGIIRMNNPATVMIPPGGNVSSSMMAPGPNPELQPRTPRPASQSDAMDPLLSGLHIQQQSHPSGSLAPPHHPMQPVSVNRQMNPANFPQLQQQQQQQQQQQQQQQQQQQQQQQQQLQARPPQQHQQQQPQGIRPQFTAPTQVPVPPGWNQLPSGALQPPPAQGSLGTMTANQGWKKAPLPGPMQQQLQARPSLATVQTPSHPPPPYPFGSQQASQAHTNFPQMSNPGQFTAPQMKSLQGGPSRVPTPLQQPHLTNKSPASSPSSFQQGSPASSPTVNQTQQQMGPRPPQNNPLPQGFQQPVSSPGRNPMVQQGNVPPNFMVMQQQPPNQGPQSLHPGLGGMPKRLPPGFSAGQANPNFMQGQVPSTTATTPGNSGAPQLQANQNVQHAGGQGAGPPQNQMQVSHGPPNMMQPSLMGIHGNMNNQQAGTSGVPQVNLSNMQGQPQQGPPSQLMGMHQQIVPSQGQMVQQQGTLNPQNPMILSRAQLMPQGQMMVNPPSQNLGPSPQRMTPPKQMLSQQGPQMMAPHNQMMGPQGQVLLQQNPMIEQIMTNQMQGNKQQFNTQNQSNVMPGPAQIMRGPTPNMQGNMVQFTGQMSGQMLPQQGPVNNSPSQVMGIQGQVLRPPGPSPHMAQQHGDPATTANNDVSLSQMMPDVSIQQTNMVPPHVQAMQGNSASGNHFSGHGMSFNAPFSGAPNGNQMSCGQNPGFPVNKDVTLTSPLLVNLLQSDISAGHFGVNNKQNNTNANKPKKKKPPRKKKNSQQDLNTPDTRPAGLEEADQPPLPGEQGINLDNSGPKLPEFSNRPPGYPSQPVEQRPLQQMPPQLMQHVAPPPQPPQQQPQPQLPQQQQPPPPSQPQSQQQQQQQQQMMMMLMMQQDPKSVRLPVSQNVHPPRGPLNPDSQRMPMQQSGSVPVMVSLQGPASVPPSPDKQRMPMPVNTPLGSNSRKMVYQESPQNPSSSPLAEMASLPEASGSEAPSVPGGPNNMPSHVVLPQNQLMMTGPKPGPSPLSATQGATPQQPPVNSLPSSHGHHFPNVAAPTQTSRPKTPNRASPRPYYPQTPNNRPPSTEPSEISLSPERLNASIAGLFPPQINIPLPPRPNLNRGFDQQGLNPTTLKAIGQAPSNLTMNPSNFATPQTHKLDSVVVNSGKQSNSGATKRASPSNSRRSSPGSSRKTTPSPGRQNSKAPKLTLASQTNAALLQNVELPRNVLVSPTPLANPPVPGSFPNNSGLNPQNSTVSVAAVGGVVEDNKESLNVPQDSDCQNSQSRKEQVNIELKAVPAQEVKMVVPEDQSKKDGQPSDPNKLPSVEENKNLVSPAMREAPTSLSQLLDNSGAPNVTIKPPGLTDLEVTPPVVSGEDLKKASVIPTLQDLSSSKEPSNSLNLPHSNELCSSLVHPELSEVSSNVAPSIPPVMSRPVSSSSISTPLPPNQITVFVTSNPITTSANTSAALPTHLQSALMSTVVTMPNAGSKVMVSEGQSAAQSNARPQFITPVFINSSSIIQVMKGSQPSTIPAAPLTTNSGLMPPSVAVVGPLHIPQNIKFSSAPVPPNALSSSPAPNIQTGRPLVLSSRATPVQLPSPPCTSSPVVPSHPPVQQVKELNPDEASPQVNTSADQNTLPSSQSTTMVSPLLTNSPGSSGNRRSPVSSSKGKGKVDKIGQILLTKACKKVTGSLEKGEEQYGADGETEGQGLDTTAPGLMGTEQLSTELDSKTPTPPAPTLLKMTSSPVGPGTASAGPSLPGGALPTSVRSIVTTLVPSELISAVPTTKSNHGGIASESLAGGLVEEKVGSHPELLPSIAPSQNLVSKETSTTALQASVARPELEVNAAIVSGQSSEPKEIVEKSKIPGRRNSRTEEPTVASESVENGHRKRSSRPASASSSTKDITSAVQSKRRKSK
UniProt P0A7C2: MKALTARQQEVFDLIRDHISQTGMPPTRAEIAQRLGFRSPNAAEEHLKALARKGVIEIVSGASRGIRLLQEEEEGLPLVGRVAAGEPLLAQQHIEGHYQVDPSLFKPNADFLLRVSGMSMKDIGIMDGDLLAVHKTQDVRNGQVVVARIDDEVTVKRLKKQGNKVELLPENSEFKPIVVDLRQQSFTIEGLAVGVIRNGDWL
UniProt Q9JLI4: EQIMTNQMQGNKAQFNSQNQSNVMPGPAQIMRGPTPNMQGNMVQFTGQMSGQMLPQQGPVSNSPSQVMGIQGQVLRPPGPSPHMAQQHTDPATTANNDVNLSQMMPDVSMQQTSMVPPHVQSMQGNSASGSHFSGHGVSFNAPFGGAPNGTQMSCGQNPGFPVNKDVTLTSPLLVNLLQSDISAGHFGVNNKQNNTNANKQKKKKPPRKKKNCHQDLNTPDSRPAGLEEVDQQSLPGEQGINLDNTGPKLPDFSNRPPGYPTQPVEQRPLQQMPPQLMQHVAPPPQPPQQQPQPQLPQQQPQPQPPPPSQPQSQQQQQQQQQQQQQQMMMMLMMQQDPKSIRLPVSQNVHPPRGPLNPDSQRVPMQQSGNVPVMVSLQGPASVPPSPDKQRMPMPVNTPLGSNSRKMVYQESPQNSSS

This passage reports binding results from US20040175720A1 (NEW YORK UNIVERSITY, published 2004).

These are yes or no findings as the source states them, for the method shown. For some assays here: In cells and extracts the contact can be indirect. Some binding calls cover weakened binding; strength is not graded here. Tags and fused reporters may be left off the sequences shown.

B1: Flag-tagged NIF-1 (full-length human NIF-1 with a Flag-tag, expressed from pEX-FlagNIF-1) (protein, not shown: small tags and cut ends)
chain: MEENEVESSSDAAPGPGRPEEPSESGLGVGTSEAVSADSSDAAAAPGQAEADDSGVGQSSDRGSRSQEEVSESSSSADPLPNSYLPDSSSVSHGPVAGVTGGPPALVHSSALPDPNMLVSDCTASSSDLGSAIDKIIESTIGPDLIQNCITVTSAEDGGAETTRYLILQGPDDGAPMTSPMSSSTLAHSLAAIEALADGPTSTSTCLEAQGGPSSPVQLPPASGAEEPDLQSLEAMMEVVVVQQFKCKMCQYRSSTKATLLRHMRERHFRPVAAAAAAAGKKGRLRKWSTSTKSQEEEGPEEEDDDDIVDAGAIDDLEEDSDYNPAEDEPRGRQLRLQRPTPSTPRPRRRPGRPRKLPRLEISDLPDGVEGEPLVSSQSGQSPPEPQDPEAPSSSGPGHLVAMGKVSRTPVEAGVSQSDAENAAPSCPDEHDTLPRRRGRPSRRFLGKKYRKYYYKSPKPLLRPFLCRICGSRFLSHEDLRFHVNSHEAGDPQLFKCLQCSYRSRRWSSLKEHMFNHVGSKPYKCDECSYTSVYRKDVIRHAAVHSRDRKKRPDPTPKLSSFPCPVCGRVYPMQKRLTQHMKTHSTEKPHMCDKCGKSFKKRYTFKMHLLTHIQAVANRRFKCEFCEFVCEDKKALLNHQLSHVSDKPFKCSFCPYRTFREDFLLSHVAVKHTGAKPFACEYCHFSTRHKKNLRLHVRCRHASSFEEWGRRHPEEPPSRRRPFFSLQQIEELKQQHSAAPGPPPSSPGPPEIPPEATTFQSSEAPSLLCSDTLGGATIIYQQGAEESTAMATQTALDLLLNMSAQRELGGTALQVAVVKSEDVEAGLASPGGQPSPEGATPQVVTLHVAEPGGGAAAESQLGPPDLPQITLAPGPFGGTGYSVITAPPMEEGTSAPGTPYSEEPAGEAAQAVVVSDTLKEAGTHYIMATDGTQLHHIELTADGSISFPSPDALASGAKWPLLQCGGLPRDGPEPPSPAKTHCVGDSQSSASSPPATSKALGLAVPPSPPSAATAASKKFSCKICAEAFPGRAEMESHKRAHAGPGAFKCPDCPFSARQWPEVRAHMAQHSSLRPHQCSQCSFASKNKKDLRRHMLTHTKEKPFACHLCGQRFNRNGHLKFHIQRLHSPDGRKSGTPTARAPTQTPTQTIILNSDDETLATLHTALQSSHGVLGPERLQQALSQEHIIVAQEQTVTNQEEAAYIQEITTADGQTVQHLVTSDNQVQYIISQDGVQHLLPQEYVVVPEGHHIQVQEGQITHIQYEQGAPFLQESQIQYVPVSPGQQLVTQAQLEAAAHSAVTAVADAAMAQAQGLFGTDETVPEHIQQLQHQGIEYDVITLADD
Regarding B1, the binding result in assay [1] and in assay [2] was “binds” in each case.

B2: B42-NIF-1 (full-length), B42 activation domain fusion expressed from pJG4-5 in yeast (other, not shown: large carriers)
chain: MEENEVESSSDAAPGPGRPEEPSESGLGVGTSEAVSADSSDAAAAPGQAEADDSGVGQSSDRGSRSQEEVSESSSSADPLPNSYLPDSSSVSHGPVAGVTGGPPALVHSSALPDPNMLVSDCTASSSDLGSAIDKIIESTIGPDLIQNCITVTSAEDGGAETTRYLILQGPDDGAPMTSPMSSSTLAHSLAAIEALADGPTSTSTCLEAQGGPSSPVQLPPASGAEEPDLQSLEAMMEVVVVQQFKCKMCQYRSSTKATLLRHMRERHFRPVAAAAAAAGKKGRLRKWSTSTKSQEEEGPEEEDDDDIVDAGAIDDLEEDSDYNPAEDEPRGRQLRLQRPTPSTPRPRRRPGRPRKLPRLEISDLPDGVEGEPLVSSQSGQSPPEPQDPEAPSSSGPGHLVAMGKVSRTPVEAGVSQSDAENAAPSCPDEHDTLPRRRGRPSRRFLGKKYRKYYYKSPKPLLRPFLCRICGSRFLSHEDLRFHVNSHEAGDPQLFKCLQCSYRSRRWSSLKEHMFNHVGSKPYKCDECSYTSVYRKDVIRHAAVHSRDRKKRPDPTPKLSSFPCPVCGRVYPMQKRLTQHMKTHSTEKPHMCDKCGKSFKKRYTFKMHLLTHIQAVANRRFKCEFCEFVCEDKKALLNHQLSHVSDKPFKCSFCPYRTFREDFLLSHVAVKHTGAKPFACEYCHFSTRHKKNLRLHVRCRHASSFEEWGRRHPEEPPSRRRPFFSLQQIEELKQQHSAAPGPPPSSPGPPEIPPEATTFQSSEAPSLLCSDTLGGATIIYQQGAEESTAMATQTALDLLLNMSAQRELGGTALQVAVVKSEDVEAGLASPGGQPSPEGATPQVVTLHVAEPGGGAAAESQLGPPDLPQITLAPGPFGGTGYSVITAPPMEEGTSAPGTPYSEEPAGEAAQAVVVSDTLKEAGTHYIMATDGTQLHHIELTADGSISFPSPDALASGAKWPLLQCGGLPRDGPEPPSPAKTHCVGDSQSSASSPPATSKALGLAVPPSPPSAATAASKKFSCKICAEAFPGRAEMESHKRAHAGPGAFKCPDCPFSARQWPEVRAHMAQHSSLRPHQCSQCSFASKNKKDLRRHMLTHTKEKPFACHLCGQRFNRNGHLKFHIQRLHSPDGRKSGTPTARAPTQTPTQTIILNSDDETLATLHTALQSSHGVLGPERLQQALSQEHIIVAQEQTVTNQEEAAYIQEITTADGQTVQHLVTSDNQVQYIISQDGVQHLLPQEYVVVPEGHHIQVQEGQITHIQYEQGAPFLQESQIQYVPVSPGQQLVTQAQLEAAAHSAVTAVADAAMAQAQGLFGTDETVPEHIQQLQHQGIEYDVITLADD
notes: also called NIF-1 expressed as a B42-fusion
For B2, the binding result in assay [3], in assay [4] and in assay [5] was “binds” throughout.

B3: Human NIF-1 amino acids 1007-1150 (FIG. 5, row g), B42 fusion (protein, not shown: large carriers)
chain: SPPSAATAASKKFSCKICAEAFPGRAEMESHKRAHAGPGAFKCPDCPFSARQWPEVRAHMAQHSSLRPHQCSQCSFASKNKKDLRRHMLTHTKEKPFACHLCGQRFNRNGHLKFHIQRLHSPDGRKSGTPTARAPTQTPTQTII
With B3, the binding entry in assay [6] was “binds”.

B4: Human NIF-1 amino acids 1043-1342 (FIG. 5, row f), B42 fusion (protein, not shown: large carriers)
chain: GPGAFKCPDCPFSARQWPEVRAHMAQHSSLRPHQCSQCSFASKNKKDLRRHMLTHTKEKPFACHLCGQRFNRNGHLKFHIQRLHSPDGRKSGTPTARAPTQTPTQTIILNSDDETLATLHTALQSSHGVLGPERLQQALSQEHIIVAQEQTVTNQEEAAYIQEITTADGQTVQHLVTSDNQVQYIISQDGVQHLLPQEYVVVPEGHHIQVQEGQITHIQYEQGAPFLQESQIQYVPVSPGQQLVTQAQLEAAAHSAVTAVADAAMAQAQGLFGTDETVPEHIQQLQHQGIEYDVITLADD
With B4, in assay [6], the binding entry is “binds”.

B5: B42-NIF-2 (human NIF-2 lacking the N-terminal 74 amino acids, B42 fusion) (protein, not shown: large carriers)
chain: SSADPLPNSYLPDSSSVSHGPVAGVTGGPPALVHSSALPDPNMLVSDCTASSSDLGSAIDKIIESTIGPDLIQNCITVTSAEDGGAETTRYLILQGPDDGAPMTSPMSSSPSSPGPPEIPPEATTFQSSEAPSLLCSDTLGGATIIYQQGAEESTAMATQTALDLLLNMSAQRELGGTALQVAVVKSEDVEAGLASPGGQPSPEGATPQVVTLHVAEPGGGAAAESQLGPPDLPQITLAPGPFGGTGYSVITAPPMEEGTSAPGTPYSEEPAGEAAQAVVVSDTLKEAGTHYIMATDGTQLHHIELTADGSISFPSPDALASGAKWPLLQCGGLPRDGPEPPSPAKTHCVGDSQSSASSPPATSKALGLAVPPSPPSAATAASKKFSCKICAEAFPGRAEMESHKRAHAGPGAFKCPDCPFSARQWPEVRAHMAQHSSLRPHQCSQCSFASKNKKDLRRHMLTHTKEKPFACHLCGQRFNRNGHLKFHIQRLHSPDGRKSGTPTARAPTQTPTQTIILNSDDETLATLHTALQSSHGVLGPERLQQALSQEHIIVAQEQTVTNQEEAAYIQEITTADGQTVQHLVTSDNQVQYIISQDGVQHLLPQEYVVVPEGHHIQVQEGQITHIQYEQGAPFLQESQIQYVPVSPGQQLVTQAQLEAAAHSAVTAVADAAMAQAQGLFGTDETVPEHIQQLQHQGIEYDVITLADD
With B5, the binding entry in assay [7] and in assay [6] was “binds” throughout.

B6: Rat NIF (partial clone isolated from the GH4C1 pJG4-5 cDNA library, B42 fusion) (protein, not shown: large carriers)
chain: MFNHVGSKPYKCDECSYTSVYRKDVIRHAAVHSQDRKKRPDPTPKLSSFPCPVCGRVYPMQKRLTQHMKTHSTEKPHMCDKCGKSFKKRYTFKMHLLTHIQAVANRRFKCEFCEFVCEDKKALLNHQLSHVSDKPFKCSFCPYRTFREDFLLSHVAVKHTGAKPFACEYCHFSTRHKKNLRLHVRCRHANSFEEWGRRHPEEPPSRRRPIFSLQQIEKLKQQHSAAPGPPLSSAGPEAPQEPAPFQSPETPPLLCPDALGGATIIYQQGAEESTAMATQTALDLLLNMSAQRELGATALQVAVVKSEDVEAELTSTARQPSSEDTTPRVVTLHVAESGSSVAAESQLGPSDLQQIALPPGPFSGASYSVITAPPVEGRASASGPPYREEPPGEAAQAVVVNDTLKEAGTHYIMAADGTQLHHIELTADGSISFPSPDTLAPGTKWPLLQCGGPPRDGPEVLSPTKTHHTGGSQGSSTPPPATSHALGLLVPHSPPSAAASSTKKFSCKVCSEAFPSRAEMESHKRAHAGPAAFKCPDCPFSARQWPEVRAHMAQHSSLRPHQCNQCSFASKNKKDLRRHMLTHTNEKPFSCHVCGQRFNRNGHLKFHIQRLHSIDGRKTGTSTARAPAQTIILNSEEETLATLHTAFQSNHGTLGTERLQQALSQEHIIVAQEQTVANQEEATYIQEITADGQTVQHLVTSDNQVQYIISQDGVQHLLPQEYVVVPDGHHIQVQEGQITHIQYEQGTPFLQESQIQYVPVSPSQQLVTQAQLEAAAHSAVTVADAAMAQAQGLFGTEEAVPEHIQQLQHQGIEYDVITLSDD
For B6, the binding result in assay [6] and in assay [8] was “binds” throughout.
